According to publication PMC9251544:
These are yes or no findings as the source states them, for the method shown. In cells and extracts the contact can be indirect. Some entries that bind do so weakly or less than the wild type. Sequences can lack the tags named with a protein.

Biological target: T1, 3×HA-xtMc1r (Xenopus tropicalis melanocortin 1 receptor) (Xenopus tropicalis)
T1 sequence: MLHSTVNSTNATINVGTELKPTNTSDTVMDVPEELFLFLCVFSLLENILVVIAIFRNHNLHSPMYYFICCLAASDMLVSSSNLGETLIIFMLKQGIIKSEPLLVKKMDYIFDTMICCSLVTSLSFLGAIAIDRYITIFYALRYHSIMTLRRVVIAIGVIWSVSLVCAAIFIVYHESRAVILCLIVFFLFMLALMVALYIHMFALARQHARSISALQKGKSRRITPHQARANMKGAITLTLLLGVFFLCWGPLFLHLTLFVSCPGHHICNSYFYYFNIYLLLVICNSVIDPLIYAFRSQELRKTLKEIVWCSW
Test: co-IP; 3×HA-xtMc1r and v5-xtMraps-flag co-transfected in HEK293T; lysate incubated with anti-HA rabbit mAb overnight at 4°C, protein A+G agarose beads; blots with anti-HA and anti-FLAG

B1: v5-xtMrap2-flag (Xenopus tropicalis melanocortin receptor accessory protein 2) (protein, UniProt A0A7D9NLE1 1-205)
chain: MSEQTVQTNRTSHKQLSNSDYTWEYEYYEYAPVSFEGLKAHKYSIVIGFWVGLAVFVIFMFFVLTLLAKTGAPHQENVDSLEKQFRMDSFAPDFGRNTEADTDRIFSRNVTEESRSLFHCYINEVDQPERIKNRNRAMDNEIIIQQTIRNSKVEEDINMIAKFNIPNFVNTDQSSSIGDDDLLLYDPPMNLENKAVHTSLCDFMN
binding: binds
